Data published in the supplement of paper PMC12067093, “Discovery and optimisation of a covalent ligand for TRIM25 and its application to targeted protein ubiquitination” (Chemical Science, 2025).
This is one part of the list.

Compound: CC1Cc2ccccc2N1C(=O)C1CCCN(C1)C(=O)CCl (mixture of isomers) [TRIM25 ligand 11 (diastereomer mixture)]
Assay: probe-labelled cysteine peptide fold change vs DMSO (competition) (log2 fold change); higher = less target engagement (more negative = stronger competition)
Settings: THP-1, incubation time: 4 h
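Further: competitive chemoproteomic profiling in live THP-1 cells with an iodoacetamide desthiobiotin (IA-DTB) probe, comparing probe-labelled peptide intensities in compound-treated cells against DMSO-treated controls.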

Target: RANBP2_P49792_581_HGLQPALLVHWAECLQK (UniProt P49792)
- probe-labelled cysteine peptide fold change (10 µM): 0.0261
- probe-labelled cysteine peptide fold change (50 µM): 0.0609

Target: RB1CC1_Q8TDY2_946_LLEMENIMHSQNCEIK (UniProt Q8TDY2)
- probe-labelled cysteine peptide fold change (10 µM): 0.0685
- probe-labelled cysteine peptide fold change (50 µM): -0.163

Target: RBM6_P78332_1057_GGCVQQATGWR (UniProt P78332)
- probe-labelled cysteine peptide fold change (10 µM): -0.0787
- probe-labelled cysteine peptide fold change (50 µM): -0.056

Target: RBM25_P49756_132_LQAFGFCEYKEPESTLR (UniProt P49756)
- probe-labelled cysteine peptide fold change (10 µM): -0.119
- probe-labelled cysteine peptide fold change (50 µM): 0.0678

Target: RBL2_Q08999_635_ADEICIAGSPLTPR (UniProt Q08999)
- probe-labelled cysteine peptide fold change (10 µM): -0.151
- probe-labelled cysteine peptide fold change (50 µM): -0.271

Target: RARA_P10276_130_NCIINKVTR (UniProt P10276)
- probe-labelled cysteine peptide fold change (10 µM): 0.119
- probe-labelled cysteine peptide fold change (50 µM): 0.379

Target: RAI1_Q7Z5J4_899_APLICTK (UniProt Q7Z5J4)
- probe-labelled cysteine peptide fold change (10 µM): -0.024
- probe-labelled cysteine peptide fold change (50 µM): -0.376

Target: RANBP3_Q9H6Z4_249_NESSNASEEEACEK (UniProt Q9H6Z4)
- probe-labelled cysteine peptide fold change (10 µM): 0.387
- probe-labelled cysteine peptide fold change (50 µM): -0.572

Target: RCC1L_Q96I51_237_MQDFDGQVVQVACGQDHSLFLTDK (UniProt Q96I51)
- probe-labelled cysteine peptide fold change (10 µM): 0.267
- probe-labelled cysteine peptide fold change (50 µM): -0.072

Target: RBM28_Q9NW13_392_CLLAASPENEAGGLK (UniProt Q9NW13)
- probe-labelled cysteine peptide fold change (10 µM): -0.0103
- probe-labelled cysteine peptide fold change (50 µM): 0.0341

Target: RASSF4_Q9H2L5_236_DCEYPLISR (UniProt Q9H2L5)
- probe-labelled cysteine peptide fold change (10 µM): -0.103
- probe-labelled cysteine peptide fold change (50 µM): 0.0181

Target: RANBP3_Q9H6Z4_406_VEVITGEEAESNVLQMQCK (UniProt Q9H6Z4)
- probe-labelled cysteine peptide fold change (10 µM): 0.0311
- probe-labelled cysteine peptide fold change (50 µM): 0.26

Target: RASA1_P20936_828_QSCELSPSK (UniProt P20936)
- probe-labelled cysteine peptide fold change (10 µM): 0.153
- probe-labelled cysteine peptide fold change (50 µM): -0.112

Target: RBBP7_Q16576_97_VHIPNDDAQFDASHCDSDK (UniProt Q16576)
- probe-labelled cysteine peptide fold change (10 µM): 0.0768
- probe-labelled cysteine peptide fold change (50 µM): 0.0312

Target: RBM22_Q9NW64_179_RGEECPYR (UniProt Q9NW64)
- probe-labelled cysteine peptide fold change (10 µM): -0.088
- probe-labelled cysteine peptide fold change (50 µM): 0.0543

Target: RANBP2_P49792_1612_EGQWDCSVCLVR (UniProt P49792)
- probe-labelled cysteine peptide fold change (10 µM): -0.0422
- probe-labelled cysteine peptide fold change (50 µM): -0.0168

Target: RANBP1_P43487_99_ICANHYITPMMELK (UniProt P43487)
- probe-labelled cysteine peptide fold change (10 µM): 0.143
- probe-labelled cysteine peptide fold change (50 µM): 0.123

Target: RBM12B_Q8IXT5_204_FASCVDASGGLK (UniProt Q8IXT5)
- probe-labelled cysteine peptide fold change (10 µM): 0.00934
- probe-labelled cysteine peptide fold change (50 µM): -0.051

Target: RBBP5_Q15291_126_VLVCPMK (UniProt Q15291)
- probe-labelled cysteine peptide fold change (10 µM): 0.0417
- probe-labelled cysteine peptide fold change (50 µM): 0.15

Target: RARS2_Q5T160_576_LLGITPVCR (UniProt Q5T160)
- probe-labelled cysteine peptide fold change (10 µM): -0.0243
- probe-labelled cysteine peptide fold change (50 µM): -0.117

Target: RANBP2_P49792_1549_EGQWDCSSCLVR (UniProt P49792)
- probe-labelled cysteine peptide fold change (10 µM): 0.00669
- probe-labelled cysteine peptide fold change (50 µM): -0.173

Target: RAD54L2_Q9Y4B4_533_QEFSNMFERPILNGQCIDSTPQDVR (UniProt Q9Y4B4)
- probe-labelled cysteine peptide fold change (10 µM): 0.0549
- probe-labelled cysteine peptide fold change (50 µM): -0.138

Target: RAPGEF1_Q13905_817_CATSSQPLAAR (UniProt Q13905)
- probe-labelled cysteine peptide fold change (10 µM): -0.0112
- probe-labelled cysteine peptide fold change (50 µM): -0.122

Target: RARS_P54136_502_VLTAEELNAAQTSVAYGCIK (UniProt P54136)
- probe-labelled cysteine peptide fold change (10 µM): 0.0398
- probe-labelled cysteine peptide fold change (50 µM): 0.105

Target: RAP1B_P61224_51_QVEVDAQQCMLEILDTAGTEQFTAMR (UniProt P61224)
- probe-labelled cysteine peptide fold change (10 µM): -0.00531
- probe-labelled cysteine peptide fold change (50 µM): -0.107

Target: RBBP4_Q09028_203_EGYGLSWNPNLSGHLLSASDDHTICLWDISAVPK (UniProt Q09028)
- probe-labelled cysteine peptide fold change (10 µM): 0.0702
- probe-labelled cysteine peptide fold change (50 µM): -0.149

Target: RANBP9_Q96S59_719_SGIGSCAFATVEDYLH (UniProt Q96S59)
- probe-labelled cysteine peptide fold change (10 µM): -0.386
- probe-labelled cysteine peptide fold change (50 µM): -0.319

Target: RANBP9_Q96S59_678_EPVCSALNSAILETHNLPK (UniProt Q96S59)
- probe-labelled cysteine peptide fold change (10 µM): 0.0853
- probe-labelled cysteine peptide fold change (50 µM): 0.0342

Target: RASGRP4_Q8TDF6_14_SHQECTGK (UniProt Q8TDF6)
- probe-labelled cysteine peptide fold change (10 µM): -0.0302
- probe-labelled cysteine peptide fold change (50 µM): -0.022

Target: RANBP2_P49792_1424_KEGHWDCSICLVR (UniProt P49792)
- probe-labelled cysteine peptide fold change (10 µM): -0.109
- probe-labelled cysteine peptide fold change (50 µM): 0.0179

Target: RASAL3_Q86YV0_447_LCGALEPALPAQAK (UniProt Q86YV0)
- probe-labelled cysteine peptide fold change (10 µM): 0.119
- probe-labelled cysteine peptide fold change (50 µM): 0.0549

Target: RBM34_P42696_196_TVFVGNLPVTCNKK (UniProt P42696)
- probe-labelled cysteine peptide fold change (10 µM): -0.175
- probe-labelled cysteine peptide fold change (50 µM): -0.38

Target: RASA1_P20936_616_HFTNPYCNIYLNSVQVAK (UniProt P20936)
- probe-labelled cysteine peptide fold change (10 µM): -0.0173
- probe-labelled cysteine peptide fold change (50 µM): -0.157
